Measured values as given in patent US4232006A, “Antibiotic W-10 complex, antibiotic 20561 and antibiotic 20562 as antifungal agents” (Schering Corporation, priority 1978, dated 1980).
At least one structure is not confirmed: it was looked up by name or label, or the drawing left a doubt.

Test system: Aeromonas sp. W-10
Assay: Resistance of Aeromonas sp. W-10 to antibacterial agents (physiological characteristics)
Assay type: cell-based
Settings: + = organism resistant
From the text: Based upon the physiological characteristics, morphology and the guanine plus cytosine content of isolated DNA, we have classified the organism as a novel member of the genus Aeromonas. We have designated the bacterium Aeromonas sp. W-10, sometimes referred to herein as Aeromonas W-10, and have deposited the microorganism with the United States Department of Agriculture, Northern Utilization Research and Development Division (NRRL), Peoria, Illinois, from whom subcultures are available. The microorganism has been assigned the numerical designation NRRL B-11053. […]. When observed microscopically, Aeromonas sp. W-10 is seen to be a non-spore forming, gram-negative rod approximately 0.5 to 1.0×1.0-1.5 microns. It occurs singly and is motile by means of a single polar flagellum. The organism is facultatively anaerobic, oxidase positive, capable of reducing nitrates to nitrites, insensitive to the vibriostatic compound 2 4-diamino-6,7-diisopropylpteridine (0/129) with a guanine-cytosine content of DNA at 61%. According to Bergy's Manual of Determinative Bacteriology, 8th Edition, the organism is, on the basis of the data set forth, classified as a member of the genus Aeromonas.
The growth and physiological characteristics of Aeromonas sp. All observations were made after seven (7) days of incubation at 28° C. Color designations are assigned according to the classification in the Color Harmony Manual (1958), Container Corporation of America. The designates G, S, C and R used herein stand for growth, surface, color and reaction, respectively.

## CC(C)c1nc2nc(N)nc(N)c2nc1C(C)C [0/129, 2 4-diamino-6,7-diisopropylpteridine]
300 mcg
  Resistance to: +

## CCn1cc(C(=O)O)c(=O)c2ccc(C)nc21 [Naladixic Acid]
50 mcg
  Resistance to: -

## CC1(C)S[C@@H]2[C@H](NC(=O)Cc3ccccc3)C(=O)N2[C@H]1C(=O)O [Penicillin G]
10 u
  Resistance to: +
